Source: the supplement of paper PMC12595434, “Development of retinoid nuclear receptor pathway antagonists through targeting aldehyde dehydrogenase 1A3” (iScience, 2025)
Some of the results follow. This is a noisy data set.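 Many melting curves are irregular; where none melted, Tm was taken as 64 °C.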

Protein sequences, listed by entry. Tags and fused reporters are not part of them. Lines headed by an entry give the natural chain unless they say otherwise; changes in a name come on top.
UniProt Q6P587: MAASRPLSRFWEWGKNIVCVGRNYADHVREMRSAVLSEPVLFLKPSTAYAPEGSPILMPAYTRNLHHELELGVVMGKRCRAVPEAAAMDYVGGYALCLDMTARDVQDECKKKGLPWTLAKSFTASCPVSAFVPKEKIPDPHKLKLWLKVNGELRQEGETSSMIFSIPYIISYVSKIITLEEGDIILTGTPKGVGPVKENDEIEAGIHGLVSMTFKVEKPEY
UniProt Q5T8P6: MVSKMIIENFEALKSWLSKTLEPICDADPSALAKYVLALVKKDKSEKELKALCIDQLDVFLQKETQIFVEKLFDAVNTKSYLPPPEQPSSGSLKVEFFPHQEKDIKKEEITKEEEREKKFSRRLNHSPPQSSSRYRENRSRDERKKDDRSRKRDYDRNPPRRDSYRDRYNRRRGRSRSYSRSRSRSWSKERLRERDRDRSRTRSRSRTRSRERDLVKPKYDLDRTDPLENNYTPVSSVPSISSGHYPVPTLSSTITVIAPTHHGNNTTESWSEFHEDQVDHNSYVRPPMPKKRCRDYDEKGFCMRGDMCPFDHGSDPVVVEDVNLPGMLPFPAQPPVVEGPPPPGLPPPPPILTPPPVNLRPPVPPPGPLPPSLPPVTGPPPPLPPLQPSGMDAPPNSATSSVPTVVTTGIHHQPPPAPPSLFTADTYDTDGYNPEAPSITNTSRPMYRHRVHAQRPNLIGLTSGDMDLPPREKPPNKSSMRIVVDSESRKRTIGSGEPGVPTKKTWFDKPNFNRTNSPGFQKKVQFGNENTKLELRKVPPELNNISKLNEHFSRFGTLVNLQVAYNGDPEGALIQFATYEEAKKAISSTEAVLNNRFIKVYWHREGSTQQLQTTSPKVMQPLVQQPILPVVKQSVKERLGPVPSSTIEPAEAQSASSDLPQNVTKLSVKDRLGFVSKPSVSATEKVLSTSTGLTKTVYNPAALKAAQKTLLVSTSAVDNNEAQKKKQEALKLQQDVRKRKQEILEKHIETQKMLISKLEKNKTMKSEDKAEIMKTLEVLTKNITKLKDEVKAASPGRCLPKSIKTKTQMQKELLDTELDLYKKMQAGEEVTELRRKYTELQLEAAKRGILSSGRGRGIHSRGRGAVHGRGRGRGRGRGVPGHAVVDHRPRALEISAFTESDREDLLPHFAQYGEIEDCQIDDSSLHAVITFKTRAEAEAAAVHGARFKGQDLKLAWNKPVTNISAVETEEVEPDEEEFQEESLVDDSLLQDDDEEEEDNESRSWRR
UniProt Q5T9L3: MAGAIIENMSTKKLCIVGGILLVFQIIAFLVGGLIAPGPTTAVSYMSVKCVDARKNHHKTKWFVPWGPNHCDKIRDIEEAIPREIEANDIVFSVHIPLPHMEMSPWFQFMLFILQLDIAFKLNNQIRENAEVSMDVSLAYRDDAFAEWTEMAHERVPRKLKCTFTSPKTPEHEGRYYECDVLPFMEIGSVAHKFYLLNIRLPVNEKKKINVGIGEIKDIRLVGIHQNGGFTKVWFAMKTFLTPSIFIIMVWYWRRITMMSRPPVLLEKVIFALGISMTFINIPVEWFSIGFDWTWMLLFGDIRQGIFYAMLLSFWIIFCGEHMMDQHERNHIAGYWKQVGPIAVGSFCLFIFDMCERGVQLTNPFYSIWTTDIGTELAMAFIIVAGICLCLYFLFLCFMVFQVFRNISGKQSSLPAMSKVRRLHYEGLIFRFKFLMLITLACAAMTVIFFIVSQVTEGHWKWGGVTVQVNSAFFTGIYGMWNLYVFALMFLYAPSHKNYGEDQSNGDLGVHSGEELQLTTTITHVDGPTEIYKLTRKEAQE
UniProt Q5JTJ3: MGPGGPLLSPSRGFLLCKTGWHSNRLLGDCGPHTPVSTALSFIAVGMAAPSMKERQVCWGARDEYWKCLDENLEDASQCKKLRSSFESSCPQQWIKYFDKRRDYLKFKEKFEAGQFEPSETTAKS
UniProt Q5XUX1: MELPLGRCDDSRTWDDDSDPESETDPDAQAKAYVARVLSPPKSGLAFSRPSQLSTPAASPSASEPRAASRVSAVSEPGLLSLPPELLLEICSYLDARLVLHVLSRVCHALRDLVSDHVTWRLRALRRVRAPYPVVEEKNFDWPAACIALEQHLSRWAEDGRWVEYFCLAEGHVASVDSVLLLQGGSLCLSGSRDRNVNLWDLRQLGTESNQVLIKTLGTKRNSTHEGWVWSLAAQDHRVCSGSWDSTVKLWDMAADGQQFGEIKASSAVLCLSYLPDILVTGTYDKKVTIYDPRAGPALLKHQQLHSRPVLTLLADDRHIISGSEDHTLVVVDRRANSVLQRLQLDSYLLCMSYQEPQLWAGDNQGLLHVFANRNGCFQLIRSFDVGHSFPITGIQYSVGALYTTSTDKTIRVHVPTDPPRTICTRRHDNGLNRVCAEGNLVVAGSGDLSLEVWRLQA
UniProt Q68CQ7: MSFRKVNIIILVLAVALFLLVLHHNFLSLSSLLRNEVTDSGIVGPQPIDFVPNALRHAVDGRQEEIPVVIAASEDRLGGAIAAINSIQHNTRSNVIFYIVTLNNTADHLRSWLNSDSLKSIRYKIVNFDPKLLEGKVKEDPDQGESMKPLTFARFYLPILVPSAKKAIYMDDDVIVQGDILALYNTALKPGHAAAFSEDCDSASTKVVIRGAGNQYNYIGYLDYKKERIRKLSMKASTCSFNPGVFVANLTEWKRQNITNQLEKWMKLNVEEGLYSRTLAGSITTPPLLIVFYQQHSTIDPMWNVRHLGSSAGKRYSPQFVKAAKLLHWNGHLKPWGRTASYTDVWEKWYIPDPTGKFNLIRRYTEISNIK
UniProt Q6P582, whole entry: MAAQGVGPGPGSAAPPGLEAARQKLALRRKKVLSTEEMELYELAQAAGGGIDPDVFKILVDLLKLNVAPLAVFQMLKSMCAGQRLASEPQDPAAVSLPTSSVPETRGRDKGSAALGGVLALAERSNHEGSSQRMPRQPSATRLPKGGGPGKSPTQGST
UniProt Q5EBL8: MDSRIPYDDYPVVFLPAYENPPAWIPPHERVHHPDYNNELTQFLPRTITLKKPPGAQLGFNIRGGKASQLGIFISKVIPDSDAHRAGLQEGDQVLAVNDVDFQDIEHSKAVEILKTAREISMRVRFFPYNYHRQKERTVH
UniProt Q63HR2: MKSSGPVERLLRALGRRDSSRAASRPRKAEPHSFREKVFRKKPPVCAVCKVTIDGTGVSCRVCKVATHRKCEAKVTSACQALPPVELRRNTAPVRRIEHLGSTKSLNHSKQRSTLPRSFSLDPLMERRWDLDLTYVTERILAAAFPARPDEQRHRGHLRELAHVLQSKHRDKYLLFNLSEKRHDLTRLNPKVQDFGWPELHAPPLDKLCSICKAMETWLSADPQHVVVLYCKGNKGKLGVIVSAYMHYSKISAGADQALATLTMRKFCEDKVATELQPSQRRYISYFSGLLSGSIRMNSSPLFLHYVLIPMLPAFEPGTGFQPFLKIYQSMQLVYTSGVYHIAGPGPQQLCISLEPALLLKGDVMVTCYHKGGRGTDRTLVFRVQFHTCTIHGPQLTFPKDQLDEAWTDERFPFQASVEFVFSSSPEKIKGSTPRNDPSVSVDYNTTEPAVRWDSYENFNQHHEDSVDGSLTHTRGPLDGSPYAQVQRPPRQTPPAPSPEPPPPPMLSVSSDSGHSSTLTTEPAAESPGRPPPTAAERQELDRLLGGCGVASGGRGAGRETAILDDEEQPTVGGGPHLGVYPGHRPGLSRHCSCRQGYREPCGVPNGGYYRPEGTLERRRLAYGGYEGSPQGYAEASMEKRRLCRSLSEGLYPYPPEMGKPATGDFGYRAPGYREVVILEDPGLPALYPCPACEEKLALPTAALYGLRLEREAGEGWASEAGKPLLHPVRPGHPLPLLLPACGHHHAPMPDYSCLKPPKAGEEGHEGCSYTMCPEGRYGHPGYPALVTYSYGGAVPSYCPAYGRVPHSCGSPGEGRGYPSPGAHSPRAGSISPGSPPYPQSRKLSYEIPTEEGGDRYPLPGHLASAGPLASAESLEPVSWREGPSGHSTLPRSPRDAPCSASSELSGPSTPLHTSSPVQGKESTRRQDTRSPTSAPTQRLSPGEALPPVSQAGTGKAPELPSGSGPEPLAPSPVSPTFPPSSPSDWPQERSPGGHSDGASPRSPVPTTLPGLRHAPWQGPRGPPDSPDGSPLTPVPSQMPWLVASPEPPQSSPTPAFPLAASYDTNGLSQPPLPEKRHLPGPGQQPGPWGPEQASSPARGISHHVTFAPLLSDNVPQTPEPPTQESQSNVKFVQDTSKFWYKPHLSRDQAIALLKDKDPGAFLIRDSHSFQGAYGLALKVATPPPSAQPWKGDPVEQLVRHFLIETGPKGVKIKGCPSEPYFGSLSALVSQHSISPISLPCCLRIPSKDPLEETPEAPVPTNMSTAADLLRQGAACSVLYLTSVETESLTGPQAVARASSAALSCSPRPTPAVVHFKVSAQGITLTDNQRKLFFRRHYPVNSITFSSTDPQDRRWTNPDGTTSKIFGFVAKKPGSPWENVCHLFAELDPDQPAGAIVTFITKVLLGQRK
UniProt Q68CZ2: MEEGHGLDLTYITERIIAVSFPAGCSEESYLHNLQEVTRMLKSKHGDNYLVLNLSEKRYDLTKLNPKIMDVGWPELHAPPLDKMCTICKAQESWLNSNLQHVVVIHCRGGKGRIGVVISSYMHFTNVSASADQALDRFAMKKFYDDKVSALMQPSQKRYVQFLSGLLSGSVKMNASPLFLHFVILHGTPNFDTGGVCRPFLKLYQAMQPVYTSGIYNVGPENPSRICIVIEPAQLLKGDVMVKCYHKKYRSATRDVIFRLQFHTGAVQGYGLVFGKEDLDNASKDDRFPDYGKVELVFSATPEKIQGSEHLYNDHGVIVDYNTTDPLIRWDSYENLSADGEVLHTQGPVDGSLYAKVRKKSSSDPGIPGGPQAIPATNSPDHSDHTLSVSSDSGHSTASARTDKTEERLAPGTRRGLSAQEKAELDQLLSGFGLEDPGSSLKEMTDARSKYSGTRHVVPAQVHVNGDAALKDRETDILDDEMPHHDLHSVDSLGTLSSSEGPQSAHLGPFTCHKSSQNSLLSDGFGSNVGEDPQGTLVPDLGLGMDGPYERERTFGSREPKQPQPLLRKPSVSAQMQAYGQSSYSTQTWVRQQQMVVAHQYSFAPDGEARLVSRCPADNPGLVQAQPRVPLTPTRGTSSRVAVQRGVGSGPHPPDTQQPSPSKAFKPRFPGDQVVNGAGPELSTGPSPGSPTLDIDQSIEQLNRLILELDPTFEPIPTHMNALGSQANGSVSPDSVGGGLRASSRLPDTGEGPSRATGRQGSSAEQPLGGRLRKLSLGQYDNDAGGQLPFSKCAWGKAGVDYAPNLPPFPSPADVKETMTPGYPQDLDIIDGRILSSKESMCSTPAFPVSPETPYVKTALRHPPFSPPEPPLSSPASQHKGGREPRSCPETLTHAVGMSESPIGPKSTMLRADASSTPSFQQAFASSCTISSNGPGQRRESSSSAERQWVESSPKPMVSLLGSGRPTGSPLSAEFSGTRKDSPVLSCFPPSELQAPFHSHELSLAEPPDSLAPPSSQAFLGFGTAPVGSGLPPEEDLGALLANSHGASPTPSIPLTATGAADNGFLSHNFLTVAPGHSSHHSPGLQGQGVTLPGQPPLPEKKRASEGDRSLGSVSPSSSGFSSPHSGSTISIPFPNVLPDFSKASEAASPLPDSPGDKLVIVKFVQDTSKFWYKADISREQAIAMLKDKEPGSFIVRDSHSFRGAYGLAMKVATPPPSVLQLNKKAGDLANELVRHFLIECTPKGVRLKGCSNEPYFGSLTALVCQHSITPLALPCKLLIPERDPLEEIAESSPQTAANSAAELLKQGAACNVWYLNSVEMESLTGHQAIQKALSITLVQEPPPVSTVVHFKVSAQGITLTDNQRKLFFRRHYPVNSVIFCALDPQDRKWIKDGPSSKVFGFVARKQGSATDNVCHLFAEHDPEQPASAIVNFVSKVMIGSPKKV
UniProt Q5T9A4: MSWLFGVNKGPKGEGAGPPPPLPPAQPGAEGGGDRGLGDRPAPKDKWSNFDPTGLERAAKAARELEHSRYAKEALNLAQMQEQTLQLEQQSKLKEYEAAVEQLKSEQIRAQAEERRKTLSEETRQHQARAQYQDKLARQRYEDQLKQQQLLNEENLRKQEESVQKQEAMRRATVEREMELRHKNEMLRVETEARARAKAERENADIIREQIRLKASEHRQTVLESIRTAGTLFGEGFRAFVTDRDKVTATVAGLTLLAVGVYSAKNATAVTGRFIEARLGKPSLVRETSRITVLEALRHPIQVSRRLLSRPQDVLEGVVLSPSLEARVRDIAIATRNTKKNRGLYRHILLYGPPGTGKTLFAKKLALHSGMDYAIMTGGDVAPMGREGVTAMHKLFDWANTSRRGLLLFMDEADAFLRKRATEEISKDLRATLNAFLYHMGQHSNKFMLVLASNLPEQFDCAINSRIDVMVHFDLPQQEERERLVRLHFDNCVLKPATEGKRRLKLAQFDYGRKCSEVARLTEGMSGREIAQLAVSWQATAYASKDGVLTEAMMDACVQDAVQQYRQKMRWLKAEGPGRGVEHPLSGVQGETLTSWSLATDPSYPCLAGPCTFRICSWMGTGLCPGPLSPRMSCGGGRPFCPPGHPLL

compound: CCc1cnccc1C(=O)Nc1cc2c(cc1F)NC(=O)CC2; test: melting temperature shift (DMSO Tm minus MBE1-treated Tm) in cellular thermal proteome profiling; higher = less thermal stabilization by MBE1 (negative = stabilized by MBE1); conditions: A375; MBE1 concentration: 100 nM

Row | Target | melting temperature shift [°C]
1 | FAHD1 (UniProt Q6P587) | -0.721
2 | RC3H1 (UniProt Q5TC82) | -0.402
3 | RBM26 (UniProt Q5T8P6) | -0.295
4 | FAM117B (UniProt Q6P1L5) | 1.61
5 | UniProt Q674X7 | -6.59
6 | NAA16 (UniProt Q6N069) | 0.0611
7 | UniProt Q68D10 | -2.08
8 | PPP4R3A (UniProt Q6IN85) | -0.595
9 | DCAF10 (UniProt Q5QP82) | -0.651
10 | ZNF787 (UniProt Q6DD87) | -3.87
11 | UniProt Q5TH69 | -0.22
12 | UniProt Q659A1 | -2.17
13 | WLS (UniProt Q5T9L3) | 2.11
14 | TMEM63B (UniProt Q5T3F8) | 0.928
15 | TSTD2 (UniProt Q5T7W7) | -1.1
16 | UniProt Q5VYK3 | 0.0612
17 | COA6 (UniProt Q5JTJ3) | 1.17
18 | UniProt Q5HYA8 | -0.389
19 | KIAA0930 (UniProt Q6ICG6) | -1.11

Row | Target | melting temperature shift [°C]
20 | EARS2 (UniProt Q5JPH6) | -0.461
21 | UniProt Q5C9Z4 | -0.48
22 | UniProt Q6BCY4 | -0.201
23 | WDR44 (UniProt Q5JSH3) | -0.635
24 | ZMYM4 (UniProt Q5VZL5) | -0.179
25 | ANGEL2 (UniProt Q5VTE6) | 0.183
26 | GPATCH4 (UniProt Q5T3I0) | -1.2
27 | UniProt Q5XUX1 | 0.0469
28 | GLT8D1 (UniProt Q68CQ7) | 0.318
29 | METTL10 (UniProt Q5JPI9) | 0.694
30 | UniProt Q5JU69 | -0.946
31 | UniProt Q6P582 | 2.25
32 | PDZD11 (UniProt Q5EBL8) | -1.99
33 | CC2D1B (UniProt Q5T0F9) | 0.898
34 | CAMSAP1 (UniProt Q5T5Y3) | -0.342
35 | TNS2 (UniProt Q63HR2) | -0.743
36 | TNS3 (UniProt Q68CZ2) | -0.604
37 | ATAD3B (UniProt Q5T9A4) | -0.0988
38 | UniProt Q6N043 | -1.53

same assay, conditions: A375; MBE1 concentration: 1 uM

Row | Target | melting temperature shift [°C]
39 | FAHD1 (UniProt Q6P587) | -0.0709
40 | RC3H1 (UniProt Q5TC82) | -1.84
41 | RBM26 (UniProt Q5T8P6) | -0.218
42 | FAM117B (UniProt Q6P1L5) | -0.765
43 | UniProt Q674X7 | -1.44
44 | NAA16 (UniProt Q6N069) | -0.354
45 | UniProt Q68D10 | 0.389
46 | PPP4R3A (UniProt Q6IN85) | 0.366
47 | DCAF10 (UniProt Q5QP82) | -0.263
48 | ZNF787 (UniProt Q6DD87) | -3.15
49 | UniProt Q5TH69 | 1.7
50 | UniProt Q659A1 | 0.0413
51 | WLS (UniProt Q5T9L3) | 1.88
52 | TMEM63B (UniProt Q5T3F8) | 1.22
53 | TSTD2 (UniProt Q5T7W7) | -0.455
54 | UniProt Q5VYK3 | -0.0141
55 | COA6 (UniProt Q5JTJ3) | -0.0916
56 | UniProt Q5HYA8 | -0.107
57 | KIAA0930 (UniProt Q6ICG6) | -0.671

Row | Target | melting temperature shift [°C]
58 | EARS2 (UniProt Q5JPH6) | -0.218
59 | UniProt Q5C9Z4 | -0.301
60 | UniProt Q6BCY4 | -0.912
61 | WDR44 (UniProt Q5JSH3) | 0.508
62 | ZMYM4 (UniProt Q5VZL5) | -0.679
63 | ANGEL2 (UniProt Q5VTE6) | -1.77
64 | GPATCH4 (UniProt Q5T3I0) | -0.0384
65 | UniProt Q5XUX1 | 0.238
66 | GLT8D1 (UniProt Q68CQ7) | -0.14
67 | METTL10 (UniProt Q5JPI9) | 0.731
68 | UniProt Q5JU69 | 0.287
69 | UniProt Q6P582 | -2.99
70 | PDZD11 (UniProt Q5EBL8) | -2.11
71 | CC2D1B (UniProt Q5T0F9) | 0.269
72 | CAMSAP1 (UniProt Q5T5Y3) | -0.574
73 | TNS2 (UniProt Q63HR2) | -0.108
74 | TNS3 (UniProt Q68CZ2) | -0.519
75 | ATAD3B (UniProt Q5T9A4) | -0.0988
76 | UniProt Q6N043 | 2.72
